The list shows a part of the results. Shown are side measurements of this screen, not its main read-out; they come without a call. Compounds called inactive in the main read-out are mostly missing here. For part of these data: Potencies come from curve fits of mixed quality, noted in brackets.

One experiment in a line: qHTS Assay for Inhibitors of PDE-IV (AID 607). As to conditions: HEK293 ACTOne CNG channel cells, membrane potential fluorescence; measured here: parental cell counter-screen. The method in brief:
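The readout is membrane depolarisation from a cAMP-sensing CNG channel, detected with a potential dye at ex 535/em 590. Cells were HEK293-derived (endogenous PDE-IV) at 1000 cells/well, titrated up to 22.9 uM final.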
(qHTS replaces the single test concentration by a dilution series.)
For `COC(=O)[C@H]1C[C@@H]1[C@H](NP(=O)(c1ccccc1)c1ccccc1)c1ccccc1`, the AC50 was 1.58 µM [rising, full curve].

For `Clc1ccc([C@@H](OCCN2CCCCC2)c2ccccc2)cc1`, the AC50 is 5.01 µM [rising, partial curve].

With `CCCC[C@@H]1C[C@H]1C(NP(=O)(c1ccccc1)c1ccccc1)c1ccc(Cl)cc1` (some centres not stated), the AC50 is 5.01 µM [rising, partial curve]. On to `C[C@@H]1O[C@H](O[C@H]2C[C@@H](O)[C@]3(CO)[C@H]4[C@H](O)C[C@]5(C)[C@@H](C6=CC(=O)OC6)CC[C@@]5(O)[C@H]4CC[C@]3(O)C2)[C@@H](O)[C@H](O)[C@H]1O`, for which the AC50 is 2.51 µM [rising, full curve, poor fit]. Regarding `CC(=O)O[C@H]1C[C@@H](O[C@@H]2[C@H](C)O[C@H](O[C@@H]3[C@H](C)O[C@H](O[C@@H]4CC[C@@]5(C)[C@@H](CC[C@]6(C)[C@]5(C)C[C@H](O)[C@]5(C)[C@@H](C7=CC(=O)OC7)CC[C@@]56O)C4)C[C@@H]3O)C[C@@H]2O)O[C@@H](C)[C@H]1O[C@H]1O[C@@H](CO)[C@@H](O)[C@@H](O)[C@@H]1O`, the AC50 was 6.31 µM [rising, partial curve, poor fit].

A further experiment in a line: qHTS assay for small molecule agonists of retinoid X receptor alpha signaling (AID 588544). To be noted: HEK293T RXRa-UAS-bla, beta-lactamase reporter, 18 h; 530 nm emission.
Take `CC(C)Oc1cc(-n2nc(C(C)(C)C)oc2=O)c(Cl)cc1Cl`: the max response is 32.7%. In the case of `COc1ccc(-c2ccccc2)cc1NNC(=O)OC(C)C`, the max response is -3.14%. For the compound `CC(C)=CC1C(C(=O)OCc2coc(Cc3ccccc3)c2)C1(C)C` (configuration not stated), the max response was -3.83%. Same read-out and setting: next, `CCNc1nc(Cl)nc(NC(C)(C)C)n1`: -1.48%.

A short description of another experiment: qHTS assay for small molecule antagonists of retinoid X receptor alpha signaling (AID 588546).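 Also: cells stimulated with 9-cis-retinoic acid as agonist; % is scaled to controls: 0 for no effect and ±100 for the full control effect.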 To be noted: HEK293T RXRa-UAS-bla, beta-lactamase ratio, antagonist mode; measured here: W530 green channel, cytotoxicity proxy. The method in brief: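 Beta-lactamase reporter inhibition, read as CCF4 fluorescence ratio (ex 405, em 460/530 nm) after 2 h at RT. HEK293T UAS-bla cells, 2500/well, were stimulated with 9-cis-RA at 500 or 100 nM final alongside test compound for 18 h at 37 C.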
As to `CC(C)Oc1cc(-n2nc(C(C)(C)C)oc2=O)c(Cl)cc1Cl`, the max response is -13.1%. As for `COc1cc(Cl)c(OC)cc1Cl`, the max response is -20.5%. On the same count and under the same terms, next, `CN/C(=N/[N+](=O)[O-])NCC1CCOC1` (configuration not stated): 6.24%; `CCC(CC)Nc1c([N+](=O)[O-])cc(C)c(C)c1[N+](=O)[O-]`: -18.4%; `O=S(=O)(O)C(F)(F)C(F)(F)C(F)(F)C(F)(F)C(F)(F)C(F)(F)F`: 6.79%. `CCCCCOC(=O)c1ccccc1C(=O)OCCCCC`: the max response is -9.33%. The same measure, in the same setting: with `O=CNC(N1CCN(C(NC=O)C(Cl)(Cl)Cl)CC1)C(Cl)(Cl)Cl` (configuration not stated) the figure was 1.51%; with `C1=Cc2cccc3cccc1c23`, -2.5%; with `Cc1[nH]c(=O)n(C(C)(C)C)c(=O)c1Cl`, 4.34%. As for `S=C(S)NCCNC(=S)S`, the max response is 15.3%.

As to `CCOC(=O)[C@H](C)Oc1ccc(Oc2nc3ccc(Cl)cc3o2)cc1`, the max response was -12.3%. `CC(C)CCON=O`: the max response came to 2.88%. As for `Brc1cccc(-c2ccccc2)c1`, the max response is -3.8%. Same read-out and setting: with `COc1ccc(-c2ccccc2)cc1NNC(=O)OC(C)C` the figure was -5.35%; with `C/C=C/C=O`, -5.56%. The same measure, in the same setting: next, `CCC(C)Nc1c([N+](=O)[O-])cc(C(C)(C)C)cc1[N+](=O)[O-]` (configuration not stated): 8.6%. As for `CCNc1nc(NC(C)(C)C)nc(SC)n1`, the max response turned out to be 12.7%. The same measure, in the same setting: next, `CCC[N+](=O)[O-]`: -5.25%.

As to `O=c1[nH]c(=O)n(Cl)c(=O)n1Cl`, the max response is 7.08%. Turning to `Clc1ccc2ccccc2c1`, the max response is -17.8%. On the same count and under the same terms, next, `CCN(CC)c1nc(C)cc(OP(=S)(OC)OC)n1`: -3.68%; `CCNCC`: -16.5%; `O=C(O)[C@@H]1[C@H](C(=O)O)[C@@]2(Cl)C(Cl)=C(Cl)[C@]1(Cl)C2(Cl)Cl`: -3.69%. With `CCC(C)(c1ccc(O)cc1)c1ccc(O)cc1`, the max response was -11.6%. Turning to `COc1ccccc1N`, the max response was -10.5%. Regarding `Brc1ccc(Oc2ccc(Br)cc2Br)c(Br)c1`, the max response was -1.71%. On the same count and under the same terms, with `CC(C)[C@H](C(=O)O[C@H](C#N)c1cccc(Oc2ccccc2)c1)c1ccc(Cl)cc1` the figure was -9.23%. On the same count and under the same terms, next, `Cc1cc(C)nc(NC(=O)NS(=O)(=O)c2ccccc2C(=O)OC2COC2)n1`: -2.65%. Regarding `CC12CC1(C)C(=O)N(c1cc(Cl)cc(Cl)c1)C2=O` (configuration not stated), the max response turned out to be 5.26%. The same measure, in the same setting: with `CCOC(=O)C(C)Oc1ccc(Oc2nc3ccc(Cl)cc3o2)cc1` (configuration not stated) the figure was 13%; with `CCc1cnc(C2=NC(C)(C(C)C)C(=O)N2)c(C(=O)O)c1` (configuration not stated), -9.93%. Same read-out and setting: with `CCNc1nc(Cl)nc(NC(C)(C)C)n1` the figure was 4.08%.

On to `CCCSC(=O)N(CCC)CCC`, for which the max response was -18.8%.

The term AC50 denotes the concentration giving half of the maximal activity seen.

The record behind these values is PubChem BioAssay (NCATS).
